Consider three substances from article PMC4549865, “The Escherichia coli NarL receiver domain regulates transcription through promoter specific functions” (BMC Microbiology, 2015).

By UniProt entry, the sequences of proteins in these tests, tags left out. Where a name states a change or a piece, a line headed by the entry shows the natural chain unless it says otherwise.
UniProt P0AF28: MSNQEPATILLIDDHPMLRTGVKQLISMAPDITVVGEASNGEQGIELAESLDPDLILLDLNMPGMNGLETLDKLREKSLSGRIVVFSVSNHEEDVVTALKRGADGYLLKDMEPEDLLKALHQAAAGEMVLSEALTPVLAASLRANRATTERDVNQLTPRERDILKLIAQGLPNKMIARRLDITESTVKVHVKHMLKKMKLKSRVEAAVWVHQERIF

Assay in all cases: AUC; sedimentation equilibrium, 4 °C, Beckman Optima XL-A, absorption optics; samples at 60 μM and 160 μM in 25 mM Tris pH 7.5-8.5, 500 mM NaCl (other salts in some runs); 11,000-22,000 rpm; single-species fits and global fits of monomer-dimer and other models; monomer to dimer; both purified
Test [1] concerns the target NarL C-terminal domain construct NarL^(C (147–216)) (Escherichia coli) (UniProt P0AF28).
For test [2], the target named is NarL C-terminal domain construct NarL^(C (126–216)), with the entire linker region (Escherichia coli) (UniProt P0AF28).
For test [3], the target named is Full-length unphosphorylated NarL (Escherichia coli) (UniProt P0AF28).

These are yes or no findings as the source states them, for the method shown.

Regarding “NarL C-terminal domain construct NarL^(C (147–216)) (from UniProt P0AF28 147-216) (domain or fragment)”, the binding entry in test [1] is “no binding (tested: 160 μM)”. In the case of “NarL C-terminal domain construct NarL^(C (126–216)), with the entire linker region (from UniProt P0AF28 126-216) (domain or fragment)”, the binding entry in test [2] was “no binding (tested: 160 μM)”.

For the substance “Full-length unphosphorylated NarL (from UniProt P0AF28 1-216)”, the binding result in test [3] is listed as “no binding (tested: 160 μM)”.
